This is one part of the list. The main result of the screen is listed elsewhere. These columns were measured beside it and carry no call. Compounds called inactive in the main read-out are mostly missing here. The note in brackets gives the kind of curve behind each potency; many fits are weak.
Assay: qHTS Assay for Modulators of Lamin A Splicing
Settings: HeLa LMNA splicing GFP/RFP minigene ratio, 48 h
Procedure, shortened: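 Read-out is the ratio of GFP to DsRed2 object intensity, acquired by 488 nm laser-scanning cytometry on HeLa lamin A-EGFP minigene reporter cells. Compound incubation 48 hrs at 37 °C in Opti-MEM with 2% FBS; DMSO 0.5% final.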

[1] = measured here: GFP splicing reporter channel
[2] = measured here: RFP viability control channel

SMILES	AC50 [1]	AC50 [2]
CCC(CC)C(=O)Nc1ccc2nc(SCC(=O)N3c4ccccc4CC3C)sc2c1 (stereo not given)	1.41 µM [falling, partial curve, poor fit]	–
CC(C)(C)C(=O)Nc1nc2c(s1)COc1ccccc1-2	–	11.2 µM [rising, partial curve]
CCN(CC)S(=O)(=O)c1cccc(NC(=O)CCSc2ccc(Cl)cc2)c1	–	20 µM [rising, single point]
COc1ccc([N+](=O)[O-])cc1NC(=O)C(C)Sc1nc(C)c(C)c(C)n1 (stereo not given)	17.8 µM [rising, single point]	35.5 µM [rising, single point]
CN(C)c1ccc(C(=C2C=CC(=[N+](C)C)C=C2)c2ccccc2)cc1	8.91 µM [rising, partial curve]	5.62 µM [rising, full curve]
CCOC(=O)C1CCN(CCC(=O)Nc2ccc(C)c(C)c2)CC1	–	1.12 µM [falling, full curve, poor fit]
COc1ccc(NC(=O)c2sc3nc(Cc4ccccc4)cc(C(F)(F)F)c3c2N)cc1OC	1.78 µM [rising, full curve, poor fit]	–
CN(C)CCOC(=O)C(c1ccccc1)C1(O)CCCC1 (stereo not given)	–	2.24 µM [falling, partial curve]
CC(C)N1CCC(=NNC(=O)c2ccccc2[N+](=O)[O-])CC1	3.55 µM [falling, partial curve]	–
CC1CC1c1ccc(/C=C(\C#N)C(=O)Nc2ccccc2Cl)o1 (stereo not given)	–	22.4 µM [rising, single point]
CCc1cc(Cl)c(OC)c(C(=O)NC[C@@H]2CCCN2CC)c1O	11.2 µM [falling, single point]	7.94 µM [falling, single point]
Cc1ccc2onc(CC(=O)N3CCN(c4ccccc4F)CC3)c2c1	–	2.82 µM [rising, full curve]
COc1ccc(NC(=O)C2CCCN(S(=O)(=O)c3ccc(C)cc3)C2)cc1OC (stereo not given)	–	20 µM [rising, single point]
CCn1cc(C(=O)O)c(=O)c2cc(F)c(N/N=C/c3ccccc3[N+](=O)[O-])cc21	–	6.31 µM [rising, partial curve, poor fit]
Cc1ccccc1-n1sc2cc(F)ccc2c1=O	35.5 µM [falling, single point]	35.5 µM [falling, partial curve]
CCn1c(C)c(C2=CCN(S(=O)(=O)c3ccc(C)cc3)CC2)c2ccccc21	–	20 µM [rising, partial curve]
O=C(Nc1nc(-c2ccc(Cl)s2)cs1)c1cccs1	12.6 µM [rising, single point]	25.1 µM [rising, single point]
Cc1ccc(SCc2nc(N)nc(Nc3ccccc3C)n2)c(C)c1	7.94 µM [rising, partial curve]	12.6 µM [rising, partial curve]
CC(=O)c1cc(-c2ccc(F)cc2)n(CC(=O)NC2CCCCCC2)c1C	–	10 µM [falling, partial curve]

SMILES	AC50 [1]	AC50 [2]
COC(=O)C1=C(C)OC(N)=C(C#N)C1c1c(C)nn(C)c1C (stereo not given)	–	0.0891 µM [falling, full curve]
O=C(Nc1nc2c(s1)COc1ccccc1-2)c1cccs1	15.8 µM [rising, partial curve, poor fit]	14.1 µM [rising, single point]
COc1ccc(/C=N/N2CCOCC2)cc1OCc1ccccc1	0.0708 µM [falling, full curve, poor fit]	0.158 µM [falling, partial curve, poor fit]
CCn1c(SCC(=O)N/N=C/c2cc(OC)c(O)c(OC)c2)nc2ccccc21	–	2.82 µM [falling, partial curve, poor fit]
Cc1c(C(=O)OC(C)C)sc(N)c1C(=O)OC(C)C	–	31.6 µM [rising, single point]
Cc1cc(Nc2ccc(C)c(C)c2)n2nc(C)nc2n1	5.62 µM [falling, partial curve, poor fit]	5.62 µM [falling, partial curve, poor fit]
CCOc1ccc(C2=Nc3ccc(Br)cc3C(c3ccc(N4CCOCC4)cc3)=NN2)cc1	–	1.78 µM [rising, full curve]
Cn1c(=O)c(=O)n(C)c2cc(S(=O)(=O)NCc3ccc(Cl)cc3)ccc21	0.0141 µM [rising, full curve, poor fit]	–
O=C(Nc1nc(-c2ccccc2)cs1)C1CCCN(S(=O)(=O)c2cccc([N+](=O)[O-])c2)C1 (stereo not given)	–	11.2 µM [rising, single point]
N=C(N)SCc1nc2ccccn2c1Br	31.6 µM [rising, single point]	–
CCOC(=O)N1CCN(C(=O)c2ccc3c(=O)n(Cc4ccc(OC)cc4)c(=S)[nH]c3c2)CC1	–	15.8 µM [rising, partial curve]
Cc1ccc2[nH]c(O)c(N=NC(=O)C(C)n3cnc4ccccc4c3=O)c2c1 (stereo not given)	–	17.8 µM [rising, single point]
CCC(C)NC(=O)C1CCN(S(=O)(=O)c2ccc(OC)cc2)CC1 (stereo not given)	5.01 µM [rising, single point]	–
CCOC(=O)c1c(C)[nH]c(C(=O)COC(=O)CNC(=O)c2ccccc2Cl)c1C	11.2 µM [falling, partial curve]	–
O=C(CN1CCCN(Cc2ccc(F)cc2Cl)C1=O)NC1CCCCCC1	11.2 µM [rising, partial curve, poor fit]	15.8 µM [rising, single point]
CCCNC(=S)N1CCC(C(=O)c2ccc(OC)cc2)CC1	–	11.2 µM [rising, partial curve]
O=S(=O)(NCc1ccccc1)c1ccc(Cl)c(S(=O)(=O)NCc2ccccc2)c1	–	20 µM [rising, single point]
CCOc1ccc(N2C(=O)CC(Sc3nc(C)cc(C)n3)C2=O)cc1 (stereo not given)	35.5 µM [falling, single point]	–
CCc1nn2cc(C(=O)c3cc(Cl)ccc3O)cnc2c1-c1ccc(F)cc1	–	22.4 µM [rising, single point]

SMILES	AC50 [1]	AC50 [2]
Cc1ccc(S(=O)(=O)Cn2nnnc2C(c2ccc(F)cc2)N2CCCCC2)cc1 (stereo not given)	17.8 µM [rising, partial curve, poor fit]	15.8 µM [rising, single point]
CCCNC(=S)N1CCC(C(=O)c2ccc3c(c2)OCCO3)CC1	7.94 µM [rising, partial curve]	–
Oc1ccc(-c2nc3ccccc3s2)cc1	–	0.0447 µM [falling, partial curve, poor fit]
O=c1c2ccccc2nc(-c2ccco2)n1-c1nc2ccccc2s1	–	15.8 µM [rising, partial curve]
COCCN(CCOC)Cc1c(C)[nH]c2ccccc2c1=O	22.4 µM [rising, single point]	–
Clc1ccc2c(NCc3ccco3)ncnc2c1	10 µM [rising, partial curve]	12.6 µM [rising, partial curve]
Cn1nc(C(F)(F)F)c(-c2ccccc2)c1NC(=O)c1ccco1	0.0251 µM [rising, full curve, poor fit]	–
O=C(Nc1nccs1)C1CCN(S(=O)(=O)c2c(Cl)cccc2Cl)CC1	–	14.1 µM [rising, single point]
O=C(NCc1ccc(Cl)cc1Cl)C1CCN(S(=O)(=O)c2ccc3c(c2)OCCCO3)CC1	–	31.6 µM [rising, single point]
Cc1ccccc1-n1nnnc1Sc1nnnn1-c1ccccc1	7.08 µM [falling, single point]	31.6 µM [falling, single point]
Nc1[nH]c(=O)ncc1F	0.000794 µM [falling, full curve, poor fit]	0.000794 µM [falling, full curve, poor fit]
Cc1ccc(S(=O)(=O)Nc2ccc(=O)n(Cc3ccc(Cl)c(Cl)c3)c2)cc1	35.5 µM [falling, single point]	35.5 µM [falling, partial curve, poor fit]
CCCNS(=O)(=O)c1ccc(Oc2ncc(C(F)(F)F)cc2Cl)cc1	–	20 µM [rising, single point]
CCOc1ccccc1NC(=O)c1cc2ccc3cccnc3c2[nH]1	0.00126 µM [falling, full curve, poor fit]	0.2 µM [falling, full curve, poor fit]
CN(C)S(=O)(=O)c1ccc(N=Cc2c(C(F)(F)F)[nH][nH]c2=O)cc1	0.112 µM [falling, partial curve]	8.91 µM [falling, partial curve, poor fit]
O=C(COC(=O)c1ccc2c(c1)OCCO2)NCCC1=CCCCC1	–	0.0126 µM [falling, full curve, poor fit]
CCOc1ccc(-c2cc(CCCC(=O)NCc3cccnc3)no2)cc1	0.0224 µM [falling, full curve, poor fit]	–
O=C(/C=C/c1ccccc1[N+](=O)[O-])c1ccc(F)cc1	4.47 µM [falling, partial curve]	6.31 µM [falling, partial curve]
CN1/C(=C\C(=O)COc2ccc3c(c2)OCO3)C(C)(C)c2ccccc21	–	22.4 µM [rising, single point]

An excerpt from the list above, for reference:
SMILES	AC50 [1]	AC50 [2]
CCOc1ccc(-c2cc(CCCC(=O)NCc3cccnc3)no2)cc1	0.0224 µM [falling, full curve, poor fit]	–
O=C(/C=C/c1ccccc1[N+](=O)[O-])c1ccc(F)cc1	4.47 µM [falling, partial curve]	6.31 µM [falling, partial curve]
CN1/C(=C\C(=O)COc2ccc3c(c2)OCO3)C(C)(C)c2ccccc21	–	22.4 µM [rising, single point]
